Paper PMC6719327 (Applied Microbiology and Biotechnology, 2019)
No constants are given. Whether binding was seen depends on the method and setting.

Protein sequences, listed by entry. Tags and fused reporters are not part of them. Residues count along the entry.
UniProt P25101, residues 21-427: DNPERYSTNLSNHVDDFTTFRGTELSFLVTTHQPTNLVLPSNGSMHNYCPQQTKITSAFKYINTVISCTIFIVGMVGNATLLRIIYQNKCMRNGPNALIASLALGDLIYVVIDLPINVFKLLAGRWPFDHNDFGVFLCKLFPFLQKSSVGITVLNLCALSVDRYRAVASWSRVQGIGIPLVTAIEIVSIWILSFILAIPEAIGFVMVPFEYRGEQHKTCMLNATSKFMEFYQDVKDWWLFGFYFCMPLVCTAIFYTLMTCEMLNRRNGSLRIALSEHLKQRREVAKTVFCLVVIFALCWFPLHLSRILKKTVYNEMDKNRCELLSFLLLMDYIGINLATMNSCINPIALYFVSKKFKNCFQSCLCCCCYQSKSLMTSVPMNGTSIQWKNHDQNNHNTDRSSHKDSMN
UniProt Q15116, residues 32-160: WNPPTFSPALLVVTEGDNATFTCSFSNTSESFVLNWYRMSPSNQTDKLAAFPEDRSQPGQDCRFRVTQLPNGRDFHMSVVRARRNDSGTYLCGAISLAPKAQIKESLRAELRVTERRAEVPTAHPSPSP

Molecular target: T1, ETaR-GFP (UniProt P25101)
T1 construct: endothelin A receptor (ETaR) with GFP fused to its C-terminus (in cytosol); also called ETaR cells; ETaR-GFP cells; source: CHO cells stably expressing ETaR-GFP (provided by Gmax Biopharm LLC; clone S-33 for vesicles); on cells, and in vesicles prepared from them; not shown: GFP, C-terminal, kept
Assay: flow cytometry on cells; ETaR-GFP cells mixed 1:1 with cells displaying the antibody or PD1, 30 min at 4 °C, labelled with anti-human-IgG-APC; also at pH 6.5 and pH 7.5

Substance: PD1-Fc (wild type) displayed on CHO cells (from UniProt Q15116 32-160) (Fc fusion)
- binding: no binding
